Measured values taken from the supplement of paper PMC10849652.
Some of the results follow.

By UniProt entry, the sequences of proteins in these tests, tags left out. Where a name states a change or a piece, a line headed by the entry shows the natural chain unless it says otherwise.
UniProt O43314: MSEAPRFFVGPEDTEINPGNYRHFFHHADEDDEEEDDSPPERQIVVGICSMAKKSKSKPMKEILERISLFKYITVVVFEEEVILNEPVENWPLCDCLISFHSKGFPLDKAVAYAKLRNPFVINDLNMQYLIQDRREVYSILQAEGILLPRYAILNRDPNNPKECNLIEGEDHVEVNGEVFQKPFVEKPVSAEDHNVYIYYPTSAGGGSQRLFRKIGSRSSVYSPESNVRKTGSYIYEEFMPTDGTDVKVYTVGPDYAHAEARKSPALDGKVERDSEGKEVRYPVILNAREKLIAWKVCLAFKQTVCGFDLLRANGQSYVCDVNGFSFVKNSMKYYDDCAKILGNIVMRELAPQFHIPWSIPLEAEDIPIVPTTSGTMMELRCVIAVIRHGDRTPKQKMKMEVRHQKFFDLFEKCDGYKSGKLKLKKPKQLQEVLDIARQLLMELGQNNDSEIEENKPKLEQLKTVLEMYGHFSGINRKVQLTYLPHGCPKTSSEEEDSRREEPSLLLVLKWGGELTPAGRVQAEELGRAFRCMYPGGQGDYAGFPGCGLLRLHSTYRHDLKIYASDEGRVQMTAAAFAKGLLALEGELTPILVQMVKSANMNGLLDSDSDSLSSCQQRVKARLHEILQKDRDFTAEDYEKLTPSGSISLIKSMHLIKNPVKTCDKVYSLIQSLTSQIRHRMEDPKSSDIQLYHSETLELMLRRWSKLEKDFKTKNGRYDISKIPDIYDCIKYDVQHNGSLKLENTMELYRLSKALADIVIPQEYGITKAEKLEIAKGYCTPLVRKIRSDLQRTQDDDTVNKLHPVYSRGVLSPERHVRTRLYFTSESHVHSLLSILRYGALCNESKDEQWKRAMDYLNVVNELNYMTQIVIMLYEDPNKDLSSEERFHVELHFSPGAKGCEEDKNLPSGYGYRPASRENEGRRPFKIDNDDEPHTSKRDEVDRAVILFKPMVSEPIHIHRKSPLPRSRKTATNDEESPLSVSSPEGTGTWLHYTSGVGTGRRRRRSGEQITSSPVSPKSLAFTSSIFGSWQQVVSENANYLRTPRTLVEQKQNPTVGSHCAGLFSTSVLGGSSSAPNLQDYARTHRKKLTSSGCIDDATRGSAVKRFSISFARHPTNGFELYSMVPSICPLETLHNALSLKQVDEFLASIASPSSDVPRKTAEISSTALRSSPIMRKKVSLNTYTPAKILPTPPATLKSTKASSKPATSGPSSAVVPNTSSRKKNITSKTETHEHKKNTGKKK
UniProt P62714, whole entry, looked up: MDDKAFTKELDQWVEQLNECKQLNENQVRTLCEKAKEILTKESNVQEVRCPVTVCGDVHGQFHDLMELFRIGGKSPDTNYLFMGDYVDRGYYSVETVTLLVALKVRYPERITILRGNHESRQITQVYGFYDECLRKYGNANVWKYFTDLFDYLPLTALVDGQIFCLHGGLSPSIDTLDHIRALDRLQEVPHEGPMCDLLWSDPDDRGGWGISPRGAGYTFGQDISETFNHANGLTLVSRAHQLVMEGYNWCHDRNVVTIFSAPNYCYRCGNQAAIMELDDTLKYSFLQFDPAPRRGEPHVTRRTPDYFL
UniProt Q6NYC8: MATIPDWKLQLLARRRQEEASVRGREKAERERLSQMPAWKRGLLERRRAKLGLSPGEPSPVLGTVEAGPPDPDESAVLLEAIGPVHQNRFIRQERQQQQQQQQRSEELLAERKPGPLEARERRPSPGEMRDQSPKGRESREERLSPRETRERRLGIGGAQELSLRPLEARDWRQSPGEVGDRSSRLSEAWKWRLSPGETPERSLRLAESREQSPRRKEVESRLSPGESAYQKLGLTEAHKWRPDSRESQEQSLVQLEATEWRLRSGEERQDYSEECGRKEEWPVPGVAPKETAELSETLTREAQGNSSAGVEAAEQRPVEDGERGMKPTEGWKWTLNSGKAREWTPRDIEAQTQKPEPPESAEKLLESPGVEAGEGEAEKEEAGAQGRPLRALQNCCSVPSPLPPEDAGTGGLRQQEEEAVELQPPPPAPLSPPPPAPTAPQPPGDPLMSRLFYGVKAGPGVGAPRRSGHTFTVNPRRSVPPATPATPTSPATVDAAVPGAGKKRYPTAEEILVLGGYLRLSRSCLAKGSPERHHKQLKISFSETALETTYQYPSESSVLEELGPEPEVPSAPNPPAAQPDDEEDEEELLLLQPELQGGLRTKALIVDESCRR
UniProt Q9UMS4: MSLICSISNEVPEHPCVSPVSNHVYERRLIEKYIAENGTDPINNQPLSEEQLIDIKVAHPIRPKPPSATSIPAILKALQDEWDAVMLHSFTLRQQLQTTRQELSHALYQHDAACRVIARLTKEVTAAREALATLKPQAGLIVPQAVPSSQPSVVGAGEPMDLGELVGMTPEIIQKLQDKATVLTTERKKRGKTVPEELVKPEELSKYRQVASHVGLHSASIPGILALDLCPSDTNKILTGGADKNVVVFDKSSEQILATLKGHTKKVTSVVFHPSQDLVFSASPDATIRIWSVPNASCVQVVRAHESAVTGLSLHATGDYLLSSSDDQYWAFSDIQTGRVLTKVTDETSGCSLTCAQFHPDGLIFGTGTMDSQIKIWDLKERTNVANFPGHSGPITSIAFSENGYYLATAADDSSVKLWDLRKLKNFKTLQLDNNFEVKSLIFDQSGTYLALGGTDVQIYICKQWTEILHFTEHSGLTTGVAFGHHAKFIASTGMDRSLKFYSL
UniProt Q8TAE6: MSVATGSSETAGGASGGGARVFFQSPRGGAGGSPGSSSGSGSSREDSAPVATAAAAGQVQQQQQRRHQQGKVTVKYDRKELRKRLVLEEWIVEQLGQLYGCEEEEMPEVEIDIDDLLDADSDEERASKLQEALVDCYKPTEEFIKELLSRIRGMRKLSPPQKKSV
UniProt Q969Q6: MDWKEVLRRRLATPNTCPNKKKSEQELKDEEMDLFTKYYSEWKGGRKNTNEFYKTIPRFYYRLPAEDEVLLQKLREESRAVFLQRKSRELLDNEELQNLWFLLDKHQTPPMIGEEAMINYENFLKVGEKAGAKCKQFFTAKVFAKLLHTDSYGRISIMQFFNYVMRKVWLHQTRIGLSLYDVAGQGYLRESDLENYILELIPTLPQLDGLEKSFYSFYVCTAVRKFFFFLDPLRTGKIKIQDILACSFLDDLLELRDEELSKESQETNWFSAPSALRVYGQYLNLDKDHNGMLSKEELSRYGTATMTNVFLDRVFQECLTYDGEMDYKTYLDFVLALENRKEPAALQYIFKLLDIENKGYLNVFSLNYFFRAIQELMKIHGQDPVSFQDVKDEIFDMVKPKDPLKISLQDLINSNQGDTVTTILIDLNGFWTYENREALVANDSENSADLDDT
UniProt O94906: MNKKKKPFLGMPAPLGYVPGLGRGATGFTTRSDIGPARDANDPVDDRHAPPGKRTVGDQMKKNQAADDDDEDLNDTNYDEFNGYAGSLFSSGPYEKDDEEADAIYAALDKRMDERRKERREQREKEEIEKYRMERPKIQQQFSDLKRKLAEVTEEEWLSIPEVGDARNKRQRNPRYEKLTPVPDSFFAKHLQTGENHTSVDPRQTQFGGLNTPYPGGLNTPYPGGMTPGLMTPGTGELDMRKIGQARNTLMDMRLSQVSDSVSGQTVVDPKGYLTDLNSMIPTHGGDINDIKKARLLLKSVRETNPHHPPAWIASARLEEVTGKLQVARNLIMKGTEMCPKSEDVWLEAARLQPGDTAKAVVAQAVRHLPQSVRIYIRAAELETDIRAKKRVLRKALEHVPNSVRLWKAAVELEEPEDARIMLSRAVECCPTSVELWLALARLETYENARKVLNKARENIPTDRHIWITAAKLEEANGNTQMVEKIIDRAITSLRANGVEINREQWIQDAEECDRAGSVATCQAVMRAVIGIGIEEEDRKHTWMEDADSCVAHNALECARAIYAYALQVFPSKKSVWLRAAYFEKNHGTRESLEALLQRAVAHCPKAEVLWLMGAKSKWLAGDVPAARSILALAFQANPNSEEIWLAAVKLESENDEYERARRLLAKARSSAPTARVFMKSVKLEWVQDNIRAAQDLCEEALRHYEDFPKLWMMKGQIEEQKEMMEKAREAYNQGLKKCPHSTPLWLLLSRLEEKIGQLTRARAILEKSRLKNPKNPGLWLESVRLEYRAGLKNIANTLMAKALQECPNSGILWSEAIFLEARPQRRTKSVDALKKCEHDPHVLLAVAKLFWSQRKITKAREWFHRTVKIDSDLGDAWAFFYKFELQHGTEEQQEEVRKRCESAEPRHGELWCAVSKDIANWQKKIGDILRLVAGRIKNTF
UniProt Q9UGJ0: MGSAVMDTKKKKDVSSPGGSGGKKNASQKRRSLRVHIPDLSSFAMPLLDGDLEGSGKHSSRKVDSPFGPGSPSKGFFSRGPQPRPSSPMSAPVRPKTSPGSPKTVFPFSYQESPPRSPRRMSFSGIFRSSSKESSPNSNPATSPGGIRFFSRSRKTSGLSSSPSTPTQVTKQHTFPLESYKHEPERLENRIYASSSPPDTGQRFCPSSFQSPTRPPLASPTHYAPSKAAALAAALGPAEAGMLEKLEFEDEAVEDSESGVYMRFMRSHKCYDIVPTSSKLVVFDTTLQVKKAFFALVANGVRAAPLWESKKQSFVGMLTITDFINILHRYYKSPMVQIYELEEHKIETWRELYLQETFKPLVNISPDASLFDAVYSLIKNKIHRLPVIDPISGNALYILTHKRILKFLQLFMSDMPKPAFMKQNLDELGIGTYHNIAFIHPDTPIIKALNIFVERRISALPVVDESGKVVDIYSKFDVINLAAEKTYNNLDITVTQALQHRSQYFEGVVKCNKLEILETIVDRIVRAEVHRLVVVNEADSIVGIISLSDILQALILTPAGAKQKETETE
UniProt Q8WUA2: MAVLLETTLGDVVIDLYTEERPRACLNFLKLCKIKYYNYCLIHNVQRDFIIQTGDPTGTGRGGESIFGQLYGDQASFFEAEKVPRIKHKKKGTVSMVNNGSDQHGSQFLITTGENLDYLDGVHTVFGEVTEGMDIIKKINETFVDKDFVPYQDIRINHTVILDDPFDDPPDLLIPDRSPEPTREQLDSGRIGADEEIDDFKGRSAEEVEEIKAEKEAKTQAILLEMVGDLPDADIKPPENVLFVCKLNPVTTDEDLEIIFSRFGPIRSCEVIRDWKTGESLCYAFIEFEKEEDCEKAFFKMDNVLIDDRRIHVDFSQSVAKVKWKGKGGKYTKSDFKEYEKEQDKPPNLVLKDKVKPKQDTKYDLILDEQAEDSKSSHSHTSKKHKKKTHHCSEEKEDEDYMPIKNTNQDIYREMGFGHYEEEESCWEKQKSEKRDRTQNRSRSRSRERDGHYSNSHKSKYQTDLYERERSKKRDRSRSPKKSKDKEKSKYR
UniProt Q9Y3C6: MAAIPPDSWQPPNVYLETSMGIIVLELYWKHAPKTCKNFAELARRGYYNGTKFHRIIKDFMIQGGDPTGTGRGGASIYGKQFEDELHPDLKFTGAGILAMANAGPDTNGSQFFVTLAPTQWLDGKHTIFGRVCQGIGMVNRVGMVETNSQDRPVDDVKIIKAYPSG
UniProt O15091: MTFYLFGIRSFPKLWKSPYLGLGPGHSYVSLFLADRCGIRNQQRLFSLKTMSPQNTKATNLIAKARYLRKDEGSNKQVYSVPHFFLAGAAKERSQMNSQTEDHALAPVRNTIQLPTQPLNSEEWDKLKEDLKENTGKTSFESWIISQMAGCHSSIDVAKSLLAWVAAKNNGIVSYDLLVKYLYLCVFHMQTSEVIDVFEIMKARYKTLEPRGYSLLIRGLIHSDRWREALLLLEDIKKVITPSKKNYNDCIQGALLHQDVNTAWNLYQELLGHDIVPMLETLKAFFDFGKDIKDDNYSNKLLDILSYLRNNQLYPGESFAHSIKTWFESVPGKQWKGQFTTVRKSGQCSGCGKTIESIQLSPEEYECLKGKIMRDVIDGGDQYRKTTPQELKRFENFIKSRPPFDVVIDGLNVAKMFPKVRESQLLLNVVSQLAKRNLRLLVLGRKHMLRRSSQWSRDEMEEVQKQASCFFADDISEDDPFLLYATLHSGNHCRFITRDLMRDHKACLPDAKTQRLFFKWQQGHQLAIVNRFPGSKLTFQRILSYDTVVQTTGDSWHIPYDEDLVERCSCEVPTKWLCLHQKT
UniProt Q13356: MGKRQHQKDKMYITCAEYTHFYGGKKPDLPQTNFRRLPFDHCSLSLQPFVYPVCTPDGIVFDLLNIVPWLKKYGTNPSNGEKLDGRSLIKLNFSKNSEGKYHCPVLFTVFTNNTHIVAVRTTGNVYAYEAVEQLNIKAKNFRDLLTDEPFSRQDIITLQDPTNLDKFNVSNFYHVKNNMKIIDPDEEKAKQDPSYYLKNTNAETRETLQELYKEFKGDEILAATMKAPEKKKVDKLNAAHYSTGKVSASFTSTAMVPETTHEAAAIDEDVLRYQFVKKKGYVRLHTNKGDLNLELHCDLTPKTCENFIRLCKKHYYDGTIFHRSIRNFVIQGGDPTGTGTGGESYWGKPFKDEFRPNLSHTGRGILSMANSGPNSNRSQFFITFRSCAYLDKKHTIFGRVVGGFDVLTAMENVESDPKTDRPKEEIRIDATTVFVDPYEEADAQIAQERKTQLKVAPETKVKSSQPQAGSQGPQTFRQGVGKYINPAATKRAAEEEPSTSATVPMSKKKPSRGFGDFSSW

Assays:
Test in all cases: log2 fold change, soluble protein after heating vs DMSO (PISA); higher = thermal stabilisation; K562 lysate, 10 uM; active = over 0.2 and 3.5 SD of the protein, either way, in both replicates (recomputed)
[1] = compound: C1=CC=C(C=C1)[C@H](COC2=CC3=C(C=C2)NC(=O)N3)NC(=O)C4=CC=CN(C4=O)CC5=CC(=C(C=C5)F)F
Summary of the method: (§1)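 To prepare the extract, K562 pellets were dounce-homogenised in PBS pH 7.4 with 1 mM MgCl2, giving crude material at 1 mg/mL protein. This was treated with 10 μM compound for 30 min, then heated in aliquots for 3 min over 48°C-58°C before pooling and addition of NP-40 to 0.5% at 4°C. Centrifugation at 21,000xg for 90 min left soluble protein in the supernatant, which TMTpro 16plex LC-MS/MS quantified with equalised channel sums. Results are log-two fold changes in thermal stability compared with solvent controls, from duplicates.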

[2] = compound: CC1=C(SC2=C1C(=N[C@H](C3=NN=C(N32)C)CC(=O)N)C4=CC=C(C=C4)Cl)C
Summary of the method: as §1

[3] = compound: CC1=C2C(=CC=C1)N=C(N(C2=O)C3=CC=CC=C3C)CN4C=NC5=C(N=CN=C54)N
Summary of the method: as §1

[4] = compound: Cc1sc2c(c1C)C(c1ccc(Cl)cc1)=N[C@@H](CC(=O)OC(C)(C)C)c1nnc(C)n1-2
Summary of the method: as §1

[5] = compound: c1ccc([C@@H]2C[C@H]2NC2CCNCC2)cc1
Summary of the method: as §1

Measured: log2 fold change

PPP3CC (UniProt P48454)
inactive: [1] 0.027 | [2] -0.078 | [3] -0.079 | [4] 0.079 | [5] 0.009

PPIP5K2 (UniProt O43314)
inactive: [1] 0.045 | [2] 0.023 | [3] 0.02 | [4] 0.028 | [5] 0.095

PPP2CB (UniProt P62714)
inactive: [1] -0.002 | [2] -0.003 | [3] -0.014 | [4] 0 | [5] -0.04

PRKAR2A (UniProt P13861)
inactive: [1] 0.009 | [2] 0.012 | [3] 0.038 | [4] -0.011 | [5] 0.027

PPM1H (UniProt Q9ULR3)
inactive: [1] 0.011 | [2] -0.023 | [3] -0.008 | [4] 0.062 | [5] 0.05

Taken from the listing (2 entries):
PRKAR2A (UniProt P13861)
inactive: [1] 0.009 | [2] 0.012 | [3] 0.038 | [4] -0.011 | [5] 0.027

PPM1H (UniProt Q9ULR3)
inactive: [1] 0.011 | [2] -0.023 | [3] -0.008 | [4] 0.062 | [5] 0.05

More results follow:

PPP1R18 (UniProt Q6NYC8)
inactive: [1] 0.011 | [2] 0.017 | [3] 0.06 | [4] 0.002 | [5] 0.009

PRMT5 (UniProt O14744)
inactive: [1] -0.01 | [2] 0.031 | [3] 0.006 | [4] -0.013 | [5] 0.002

PRPF18 (UniProt Q99633)
inactive: [1] -0.003 | [2] -0.016 | [3] 0.008 | [4] 0.06 | [5] 0.015

PRPF19 (UniProt Q9UMS4)
inactive: [1] -0.009 | [2] 0.001 | [3] 0.017 | [4] 0.006 | [5] 0.029

PPP1R14C (UniProt Q8TAE6)
inactive: [1] -0.019 | [2] 0.024 | [3] 0.051 | [4] -0.078 | [5] -0.147

PROS1 (UniProt P07225)
inactive: [1] 0.008 | [2] -0.007 | [3] 0.001 | [4] -0.008 | [5] -0.037

PRKCA (UniProt P17252)
inactive: [1] 0.01 | [2] -0.012 | [3] -0.061 | [4] 0.021 | [5] 0.089

PPP2R3C (UniProt Q969Q6)
inactive: [1] -0.044 | [2] 0.006 | [3] 0.042 | [4] -0.052 | [5] 0.059

PRPF6 (UniProt O94906)
inactive: [1] -0.006 | [2] 0.015 | [3] -0.012 | [4] -0.01 | [5] 0.04

PRKAG2 (UniProt Q9UGJ0)
inactive: [1] -0.042 | [2] 0.034 | [3] -0.044 | [4] 0.021 | [5] -0.013

PRCP (UniProt P42785)
inactive: [1] 0.053 | [2] -0.014 | [3] 0.007 | [4] -0.045 | [5] -0.023

PROSER1 (UniProt Q86XN7)
inactive: [1] -0.053 | [2] 0.141 | [3] 0.056 | [4] -0.003 | [5] 0.374

PPIL4 (UniProt Q8WUA2)
inactive: [1] 0.028 | [2] 0.01 | [3] -0.001 | [4] 0.029 | [5] -0.021

PPP2R5E (UniProt Q16537)
inactive: [1] -0.059 | [2] 0.006 | [3] 0.037 | [4] -0.006 | [5] -0.02

PQBP1 (UniProt O60828)
inactive: [1] 0.059 | [2] -0.031 | [3] -0.001 | [4] 0.02 | [5] -0.039

PPIL1 (UniProt Q9Y3C6)
inactive: [1] -0.002 | [2] 0.014 | [3] 0.055 | [4] -0.009 | [5] -0.008

PRORP (UniProt O15091)
inactive: [1] -0.254 | [2] -0.202 | [3] 0 | [4] -0.035 | [5] 0.163

PPIL2 (UniProt Q13356)
inactive: [1] 0.036 | [2] 0.005 | [3] 0.029 | [4] 0.082 | [5] 0.011

PPP1R9B (UniProt Q96SB3)
inactive: [1] 0.039 | [2] 0 | [3] -0.072 | [4] 0.027 | [5] 0.074

PPP3CB (UniProt P16298)
inactive: [1] 0.063 | [2] 0.043 | [3] 0.026 | [4] 0.002 | [5] -0.025
